PMC5356882
No constants are given. Whether binding was seen depends on the method and setting. Binding seen in cells or lysates may run through a third protein. Some entries that bind do so weakly or less than the wild type.

Target: Bax (Bcl-2-associated X protein) (human (endogenous in HCT-116)), Q07812
Assay: co-IP; anti-Bax antibody added to HCT-116 cell lysates, 2 h at ambient temperature, captured on protein G/A-agarose, washed three times with PBS; Western blot with PUMA, Bax 6A7 or Bax antibody; cells treated with pazopanib
Conditions: remark: other sources report otherwise

B1: PUMA (p53 up-regulated modulator of apoptosis), Q9BXH1 1-193 (protein)
chain: MARARQEGSSPEPVEGLARDGPRPFPLGRLVPSAVSCGLCEPGLAAAPAAPTLLPAAYLCAPTAPPAVTAALGGSRWPGGPRSRPRGPRPDGPQPSLSLAEQHLESPVPSAPGALAGGPTQAAPGVRGEEEQWAREIGAQLRRMADDLNAQYERRRQEEQQRHRPSPWRVLYNLIMGLLPLPRGHRAPEMEPN
  binding: binds
